The values that follow come from article PMC9606859, “Chemical Synthesis of Trans 8-Methyl-6-Nonenoyl-CoA and Functional Expression Unravel Capsaicin Synthase Activity Encoded by the Pun1 Locus” (Molecules, 2022).

This experiment deals with recombinant capsaicin synthase encoded by Pun1 (Capsicum chinense). Nature of the experiment: SEC; Superdex Increase 10/300, 0.4 mL/min, 50 mM TRIS/HCl pH 7.5, 5% glycerol, 150 mM NaCl; after Ni-NTA and concentration; enzyme activity of the fractions overlaid on UV280; preparation only partly purified; both purified.

These are yes or no findings as the source states them, for the method shown.

B1: recombinant capsaicin synthase encoded by Pun1 (enzyme, UniProt A0A2G3D6U1 1-440)
chain: MAFALPSSLVSVCDKSFIKPSSLTPSTLRFHKLSFIDQSLSNMYIPCAFFYPKVQQRLEDSKNSDELSHIAHLLQTSLSQTLVSYYPYAGKLKDNATVDCNDMGAEFLSVRIKCSMSEILDHPHASLAESIVLPKDLPWANNCEGGNLLVVQVSKFDCGGIAISVCFSHKIGDGCSLLNFLNDWSSVTRDHTTTTLVPSPRFVGDSVFSTKTYGSLTTPQILSDLNECVQKRLIFPTDKLDALRAKVAEESGVKNPTRAEVVSALLFKCATKASSSMLPSKLVHFLNIRTMIKPRLPRNTIGNLSSIFSIEATNMQDMELPTLVRNLRKEVEVAYKKDQVEQNELILEVVESMREGKLPFENMDGYENVYTCSNLCKYPYYTVDFGWGRPERVCLGNGPSKNAFFLKDYKAGQGVEARVMLHKQQMSEFERNEELLEFIA
For B1, the binding result is reported as “no binding”.
